Measured values from article PMC7460592.
These are yes or no findings as the source states them, for the method shown. In cells and extracts the contact can be indirect. Some results given as binding are weak or reduced against the parent protein; the word gives no strength.

By UniProt entry, the sequences of proteins in these tests, tags left out.
UniProt Q8N1W1: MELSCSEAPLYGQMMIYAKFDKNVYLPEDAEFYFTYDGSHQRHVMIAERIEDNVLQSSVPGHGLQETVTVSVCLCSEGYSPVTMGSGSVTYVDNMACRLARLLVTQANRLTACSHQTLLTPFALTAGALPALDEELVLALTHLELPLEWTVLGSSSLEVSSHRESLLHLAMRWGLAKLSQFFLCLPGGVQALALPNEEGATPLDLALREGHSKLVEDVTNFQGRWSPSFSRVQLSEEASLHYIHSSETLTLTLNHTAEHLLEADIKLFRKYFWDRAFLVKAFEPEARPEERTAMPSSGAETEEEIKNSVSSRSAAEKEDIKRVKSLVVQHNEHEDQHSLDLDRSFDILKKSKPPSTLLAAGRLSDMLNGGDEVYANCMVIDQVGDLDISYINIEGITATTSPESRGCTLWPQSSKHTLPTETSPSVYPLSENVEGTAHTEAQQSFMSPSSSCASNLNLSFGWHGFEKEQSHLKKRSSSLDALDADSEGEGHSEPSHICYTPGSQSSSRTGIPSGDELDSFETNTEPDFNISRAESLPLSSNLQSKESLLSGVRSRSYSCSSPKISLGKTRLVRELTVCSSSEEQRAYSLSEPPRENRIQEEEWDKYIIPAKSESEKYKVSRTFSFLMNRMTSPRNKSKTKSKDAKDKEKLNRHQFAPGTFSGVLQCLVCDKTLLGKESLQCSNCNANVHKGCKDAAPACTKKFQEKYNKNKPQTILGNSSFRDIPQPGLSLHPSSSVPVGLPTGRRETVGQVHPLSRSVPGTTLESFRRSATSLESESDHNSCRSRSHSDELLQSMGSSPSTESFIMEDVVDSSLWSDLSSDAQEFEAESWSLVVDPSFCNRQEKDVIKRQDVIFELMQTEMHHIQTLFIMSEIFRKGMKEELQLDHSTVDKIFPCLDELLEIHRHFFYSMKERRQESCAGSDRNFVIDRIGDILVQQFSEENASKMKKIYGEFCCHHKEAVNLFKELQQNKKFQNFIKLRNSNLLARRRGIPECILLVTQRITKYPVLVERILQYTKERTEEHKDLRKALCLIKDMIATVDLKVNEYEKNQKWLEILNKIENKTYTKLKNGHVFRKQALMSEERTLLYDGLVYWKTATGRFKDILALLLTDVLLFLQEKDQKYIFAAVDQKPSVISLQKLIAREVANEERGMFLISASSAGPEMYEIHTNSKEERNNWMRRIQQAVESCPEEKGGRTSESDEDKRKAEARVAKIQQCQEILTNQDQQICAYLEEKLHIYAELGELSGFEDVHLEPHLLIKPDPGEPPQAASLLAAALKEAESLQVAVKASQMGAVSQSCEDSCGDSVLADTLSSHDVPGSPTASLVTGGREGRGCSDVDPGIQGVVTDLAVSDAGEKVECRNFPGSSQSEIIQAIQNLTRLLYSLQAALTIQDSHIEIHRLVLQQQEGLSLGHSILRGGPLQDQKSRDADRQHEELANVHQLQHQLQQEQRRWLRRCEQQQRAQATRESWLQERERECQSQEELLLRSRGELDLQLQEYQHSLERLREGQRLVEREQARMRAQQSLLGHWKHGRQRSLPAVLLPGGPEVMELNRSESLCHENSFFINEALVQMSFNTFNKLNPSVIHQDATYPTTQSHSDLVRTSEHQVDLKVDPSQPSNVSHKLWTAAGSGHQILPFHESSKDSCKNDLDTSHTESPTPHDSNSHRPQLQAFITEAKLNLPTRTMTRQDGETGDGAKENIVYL

Molecular target: Rho guanine nucleotide exchange factor (RGNEF) fused to the C-terminal half of ubiquitin and the RUra3 reporter (human) (UniProt Q8N1W1)
Assay: split reporter; directed split-ubiquitin assay in yeast: RGNEF-CUb-RUra3 co-expressed with NUb (I/A/G variants) fusions; read by growth on plates lacking uracil and on 5-FOA plates, 500 µM CuSO4

binding: binds
Substance: Rho guanine nucleotide exchange factor (RGNEF) fused to the C-terminal half of ubiquitin and the RUra3 reporter (from UniProt Q8N1W1 1-1705)
